From publication PMC5461506, “Strength of Neisseria meningitidis binding to endothelial cells requires highly-ordered CD147/β2-adrenoceptor clusters assembled by alpha-actinin-4” (Nature Communications, 2017)

The chains behind the UniProt entries cited, without tags or fusion partners. Where a name states a change or a piece, a line headed by the entry shows the natural chain unless it says otherwise.
UniProt P35613: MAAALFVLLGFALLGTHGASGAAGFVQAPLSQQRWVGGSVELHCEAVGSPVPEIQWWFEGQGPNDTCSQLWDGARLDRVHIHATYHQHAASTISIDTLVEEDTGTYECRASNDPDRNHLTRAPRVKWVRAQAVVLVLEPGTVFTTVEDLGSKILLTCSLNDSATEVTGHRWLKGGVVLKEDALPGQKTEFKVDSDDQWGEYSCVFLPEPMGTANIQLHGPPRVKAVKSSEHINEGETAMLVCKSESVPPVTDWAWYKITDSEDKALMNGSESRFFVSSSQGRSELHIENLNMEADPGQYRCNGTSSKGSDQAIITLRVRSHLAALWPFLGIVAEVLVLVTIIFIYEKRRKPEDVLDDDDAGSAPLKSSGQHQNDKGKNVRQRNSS
UniProt O43707: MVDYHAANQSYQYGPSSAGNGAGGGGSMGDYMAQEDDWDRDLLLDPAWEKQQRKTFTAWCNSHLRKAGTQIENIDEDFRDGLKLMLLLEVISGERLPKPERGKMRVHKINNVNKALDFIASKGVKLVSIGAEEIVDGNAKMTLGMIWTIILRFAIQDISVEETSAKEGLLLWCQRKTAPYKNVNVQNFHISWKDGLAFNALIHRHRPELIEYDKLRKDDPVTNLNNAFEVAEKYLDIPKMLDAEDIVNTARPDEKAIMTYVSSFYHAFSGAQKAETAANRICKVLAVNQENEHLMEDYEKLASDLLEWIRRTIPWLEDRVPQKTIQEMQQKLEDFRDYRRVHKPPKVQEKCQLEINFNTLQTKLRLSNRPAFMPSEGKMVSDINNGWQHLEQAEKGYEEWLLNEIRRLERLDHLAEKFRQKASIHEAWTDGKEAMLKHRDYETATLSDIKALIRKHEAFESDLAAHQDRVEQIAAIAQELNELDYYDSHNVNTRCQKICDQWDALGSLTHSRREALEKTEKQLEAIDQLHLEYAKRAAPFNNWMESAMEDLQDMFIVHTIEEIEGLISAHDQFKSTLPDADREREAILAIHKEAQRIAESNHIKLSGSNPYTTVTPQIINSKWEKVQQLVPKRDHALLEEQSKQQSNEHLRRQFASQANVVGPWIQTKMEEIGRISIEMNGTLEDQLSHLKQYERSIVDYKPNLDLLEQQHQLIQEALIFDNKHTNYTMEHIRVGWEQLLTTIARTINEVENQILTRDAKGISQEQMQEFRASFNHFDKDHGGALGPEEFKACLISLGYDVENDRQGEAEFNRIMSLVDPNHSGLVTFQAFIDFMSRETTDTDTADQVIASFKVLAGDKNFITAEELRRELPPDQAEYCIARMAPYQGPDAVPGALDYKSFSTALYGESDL

Key:
[1] = biological target: CD147 fused to Renilla luciferase (CD147-Rluc) (human) (UniProt P35613); test: FRET or BRET; BRET saturation in living HEK293 cells: 2 ng donor plasmid (CD147-Rluc or 5 ng CD147ΔD2-Rluc), 0-400 ng acceptor plasmid (YFP fusion), coelenterazine h 5 μM, 24 h after transfection
[2] = biological target: CD147 (endogenous, HBMECs) (human (endogenous in HBMEC)) (UniProt P35613); test: co-IP; endogenous CD147 immunoprecipitated from HBMEC lysates (1% n-dodecyl β-D-maltoside), non-infected or infected with meningococci for the indicated times; blot with anti-Actn4
[3] = biological target: CD147 fused to the N-terminal fragment of Renilla luciferase (CD147-L1) (human) (UniProt P35613); test: split reporter; Renilla luciferase (Rluc8) complementation of L1 (1-229) and L2 (230-311) fusions co-transfected in HEK293 cells, coelenterazine h, 24 h after transfection

- binding [1]: binds
Substance: β2-adrenergic receptor fused to the yellow fluorescent protein (β2AR-YFP) (from UniProt P07550 1-413)

- binding [2]: binds
Substance: α-actinin-4 (endogenous, HBMECs) (from UniProt O43707 1-911)

- binding [3]: binds
Substance: β2AR fused to the C-terminal fragment of Renilla luciferase (β2AR-L2) (from UniProt P07550 1-413) (receptor)

No constants are given. Whether binding was seen depends on the method and setting. In cells and extracts the contact can be indirect. A result given as binding can be weak or reduced; the word gives no strength. Each block holds one substance with its values, some of them ahead of it.
